Measurements from the supplement of paper PMC8256030.
Some of the results follow. This data set is noisy: repeats of one test often differ as much as different tests do.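 HEK293T cells were given each compound shortly before transfection with a reporter in which red mCherry is followed by the SARS-CoV-2 frameshift element and then GFP in the −1 frame, so GFP appears only after frameshifting.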

Legend:
HEK293T = test: percent viability (nuclei count) relative to control; higher = more viable cells; details: 10 µM; 24 h
[1] = system: SARS-CoV-2 -1 PRF reporter mCherry-FSE-GFP(-1); test: mCherry (red) intensity as percent of control; higher = higher upstream reporter expression; details: 10 µM; 24 h; HEK293T
[2] = system: SARS-CoV-2 -1 PRF reporter mCherry-FSE-GFP(-1); test: percent effect, decrease of GFP/mCherry ratio (-1 PRF reporter) relative to controls; higher = stronger frameshift inhibition; details: 10 µM; 24 h; HEK293T

## C#C[C@]1(O)CC[C@H]2[C@@H]3CCC4=CC(=O)CCC4=C3C=C[C@@]21CC [gestrinone]
HEK293T
  percent viability: 254%
[1]
  mCherry: 90.4%
[2]
  percent effect: -2.01%

## CCCC(Cc1ccccc1)N1CCCC1 (stereo unspecified) [prolintane]
HEK293T
  percent viability: 195%
[1]
  mCherry: 63.3%
[2]
  percent effect: -2.57%

## Cn1cc(C(=O)c2cccc3ccccc23)cc1C(=O)O [napirimus]
HEK293T
  percent viability: 152%
[1]
  mCherry: 94.3%
[2]
  percent effect: -3.01%

## CCOC(=O)C1(c2ccccc2)CCNCC1
HEK293T
  percent viability: 283%
[1]
  mCherry: 92.6%
[2]
  percent effect: -0.144%

## C[C@]12CCC(=O)C(O)=C1CC[C@@H]1[C@@H]2CC[C@@]2(C)[C@H]1CC[C@]2(C)O [oxymesterone]
HEK293T
  percent viability: 299%
[1]
  mCherry: 95.9%
[2]
  percent effect: -4.69%

## CCOP(=S)(OCC)Oc1cc(C)nc(C(C)C)n1 [dimpylate]
HEK293T
  percent viability: 180%
[1]
  mCherry: 102%
[2]
  percent effect: 3.79%

## O=C(O)C1N=C(c2ccccc2)c2cc(Cl)ccc2NC1=O (stereo unspecified)
HEK293T
  percent viability: 259%
[1]
  mCherry: 81.7%
[2]
  percent effect: -5.11%

## CN1CCN(C(=O)OC2c3nccnc3C(=O)N2c2ccc(Cl)cn2)CC1 (stereo unspecified) [zopiclone]
HEK293T
  percent viability: 204%
[1]
  mCherry: 113%
[2]
  percent effect: -2.49%

## CCC(CC)COC(C(=O)OCCN(C)C)(c1ccccc1)c1ccccc1 [denaverine]
HEK293T
  percent viability: 362%
[1]
  mCherry: 39%
[2]
  percent effect: -0.314%

## CN1CCN(C(=O)O[C@H]2c3nccnc3C(=O)N2c2ccc(Cl)cn2)CC1 [eszopiclone]
HEK293T
  percent viability: 159%
[1]
  mCherry: 86.9%
[2]
  percent effect: -5.21%

## CC(C)=CC1C(C(=O)OCc2cccc(Oc3ccccc3)c2)C1(C)C (stereo unspecified) [phenothrin]
HEK293T
  percent viability: 126%
[1]
  mCherry: 109%
[2]
  percent effect: -0.393%

## O=C1CN=C(c2ccccc2Cl)c2cc([N+](=O)[O-])ccc2N1 [clonazepam]
HEK293T
  percent viability: 323%
[1]
  mCherry: 136%
[2]
  percent effect: 11.3%

## C[C@@H]1C[C@@H]([C@H](O)CC2CC(=O)NC(=O)C2)C(=O)[C@@H](C)C1 [cicloheximide]
HEK293T
  percent viability: 25.2%
[1]
  mCherry: 17.5%
[2]
  percent effect: -12.4%

## CCn1nc(C)c2c1C(c1ccccc1)=NCC(=O)N2 [ripazepam]
HEK293T
  percent viability: 114%
[1]
  mCherry: 91.5%
[2]
  percent effect: -6.37%

## OC(c1ccccc1)(c1ccccc1)C1CN2CCC1CC2 (stereo unspecified) [quifenadine]
HEK293T
  percent viability: 506%
[1]
  mCherry: 59%
[2]
  percent effect: 1.08%

## COC(=O)[C@H]1[C@@H](OC(=O)c2ccccc2)C[C@@H]2CC[C@H]1N2C [Cocaine]
HEK293T
  percent viability: 318%
[1]
  mCherry: 80.7%
[2]
  percent effect: -5.48%

## Cc1ccc(/N=C/N(C)/C=N/c2ccc(C)cc2C)c(C)c1 [Amitraz]
HEK293T
  percent viability: 428%
[1]
  mCherry: 61%
[2]
  percent effect: -3.03%

## CC(O)CN1CCN(CC(=O)[O-])CCN(CC(=O)[O-])CCN(CC(=O)[O-])CC1.[Gd+3] (stereo unspecified) [gadoteridol]
HEK293T
  percent viability: 210%
[1]
  mCherry: 123%
[2]
  percent effect: 0.909%

## CC[C@H]1CN2CC[C@H]1C[C@@H]2[C@@H](O)c1ccnc2ccc(OC)cc12
HEK293T
  percent viability: 287%
[1]
  mCherry: 104%
[2]
  percent effect: 2.68%

## CCN1C[C@]2(COC)[C@H](O)C[C@H](OC)[C@]34C1[C@H]([C@H](OC)[C@H]23)[C@]1(OC(C)=O)[C@H]2[C@@H](OC(=O)c3ccccc3)[C@](O)(C[C@H]24)[C@@H](OC)[C@@H]1O
HEK293T
  percent viability: 162%
[1]
  mCherry: 125%
[2]
  percent effect: -9.57%

## O=C1CC[C@@]2(O)[C@H]3Cc4ccc(O)c5c4[C@@]2(CCN3CC2CC2)[C@H]1O5
HEK293T
  percent viability: 295%
[1]
  mCherry: 95.9%
[2]
  percent effect: 2.55%

## CCOP(=S)(OCC)Oc1nc(Cl)c(Cl)cc1Cl
HEK293T
  percent viability: 21.3%
[1]
  mCherry: 52.8%
[2]
  percent effect: -1.17%

## CC(C)N(CCC(C(N)=O)(c1ccccc1)c1ccccn1)C(C)C (stereo unspecified) [disopyramide]
HEK293T
  percent viability: 151%
[1]
  mCherry: 107%
[2]
  percent effect: -1.11%

## CCCN(CCC)C(=O)Cc1c(-c2ccc(Cl)cc2)nc2ccc(Cl)cn12 [alpidem]
HEK293T
  percent viability: 180%
[1]
  mCherry: 60.5%
[2]
  percent effect: -4.67%

## CCN(CC)CCOC(=O)C(O)(c1ccccc1)c1ccccc1 [benactyzine]
HEK293T
  percent viability: 216%
[1]
  mCherry: 94.6%
[2]
  percent effect: -2.43%

## C=C[C@]1(O)CC[C@H]2[C@@H]3CCC4=CC(=O)CC[C@@H]4[C@H]3CC[C@@]21C [norvinisterone]
HEK293T
  percent viability: 79.7%
[1]
  mCherry: 92.8%
[2]
  percent effect: -4.13%

## CCN1CCCC1CNC(=O)C(O)(c1ccccc1)c1ccccc1 (stereo unspecified) [epicainide]
HEK293T
  percent viability: 15.6%
[1]
  mCherry: 37%
[2]
  percent effect: -8.89%

## c1ccc(C2(c3ccccc3)OC[C@H]([C@@H]3CCCCN3)O2)cc1 [dexoxadrol]
HEK293T
  percent viability: 326%
[1]
  mCherry: 113%
[2]
  percent effect: -3.1%

## C=CCN=C=S
HEK293T
  percent viability: 163%
[1]
  mCherry: 98%
[2]
  percent effect: -5.83%

## CNCC(O)c1ccc(O)cc1 (stereo unspecified)
HEK293T
  percent viability: 293%
[1]
  mCherry: 93%
[2]
  percent effect: -0.477%

## CN1c2ccccc2C(NCCCCCCC(=O)O)c2ccc(Cl)cc2S1(=O)=O (stereo unspecified) [tianeptine]
HEK293T
  percent viability: 105%
[1]
  mCherry: 106%
[2]
  percent effect: -2.69%

## Oc1ccc2c3c1O[C@H]1[C@@H](O)CC[C@@]4(O)[C@@H](C2)N(CC2CCC2)CC[C@]314
HEK293T
  percent viability: 177%
[1]
  mCherry: 110%
[2]
  percent effect: -3.28%
